# Screening data

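Malaria parasite (P. falciparum) lines kept in red blood cells; parasite DNA is measured by SYBR Green fluorescence after lysis, 72 h after compound addition. Each compound was titrated across a series from about 0.000037 to 29 µM. The number is the fitted AC50, the concentration giving a half-maximal change in signal; a lower value means higher potency, whether the curve shows a decrease or an increase. Calls follow the curve class and fit quality: every row here is inconclusive, covering signal-raising curves and weak, poorly fitted, partial or highest-dose-only inhibition curves.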

Values are in µM. Every entry below has the call inconclusive. These entries are mostly ones the record files as inconclusive; other results of the assay are not listed here. A potency from a partial, single-point or poor curve is only a rough figure.

compound	tested on / at	potency (µM)	curve
F/C(COc1ccc2c(c1)[nH]c1ccccc12)=C1/CN2CCC1CC2	CP335	8.492	inhibitor, partial curve
F/C(COc1ccc2c(c1)[nH]c1ccccc12)=C1/CN2CCC1CC2	CP305	7.569	inhibitor, partial curve, poor fit
F/C(COc1ccc2c(c1)[nH]c1ccccc12)=C1/CN2CCC1CC2	CP291	10.69	inhibitor, partial curve
F/C(COc1ccc2c(c1)[nH]c1ccccc12)=C1/CN2CCC1CC2	3D7	11.22	inhibitor, single point
F/C(COc1ccc2c(c1)[nH]c1ccccc12)=C1/CN2CCC1CC2	TAB113	11.22	inhibitor, single point
F/C(COc1ccc2c(c1)[nH]c1ccccc12)=C1/CN2CCC1CC2	CP250	0.3162	inhibitor, full curve, poor fit
COC(=O)C(c1ccccc1)C1CCCCN1 (stereo not drawn)	Dd2	8.912	inhibitor, partial curve
COC(=O)C(c1ccccc1)C1CCCCN1 (stereo not drawn)	DIV17	19.01	inhibitor, single point
COC(=O)C(c1ccccc1)C1CCCCN1 (stereo not drawn)	DIV14	8.492	inhibitor, partial curve
COC(=O)C(c1ccccc1)C1CCCCN1 (stereo not drawn)	PC49	10	inhibitor, single point
O=P(O)(O)OP(=O)(O)O	CP217	10	inhibitor, single point
O=P(O)(O)OP(=O)(O)O	DIV14	16.94	inhibitor, single point
O=P(O)(O)OP(=O)(O)O	P94_40	11.22	inhibitor, single point
O=P(O)(O)OP(=O)(O)O	PC26	21.33	inhibitor, single point
O=P(O)(O)OP(=O)(O)O	PAD	17.78	inhibitor, single point
O=P(O)(O)OP(=O)(O)O	ATS189	10	inhibitor, single point
CCCOC(C(=O)OC1CCN(C)CC1)(c1ccccc1)c1ccccc1	CP265	10	inhibitor, single point
CCCOC(C(=O)OC1CCN(C)CC1)(c1ccccc1)c1ccccc1	ATS189	10	inhibitor, single point
CCCOC(C(=O)OC1CCN(C)CC1)(c1ccccc1)c1ccccc1	CP305	10.69	inhibitor, partial curve, poor fit
CCCOC(C(=O)OC1CCN(C)CC1)(c1ccccc1)c1ccccc1	ATS95	10	inhibitor, single point
CCCOC(C(=O)OC1CCN(C)CC1)(c1ccccc1)c1ccccc1	CP217	11.22	inhibitor, partial curve
CCCOC(C(=O)OC1CCN(C)CC1)(c1ccccc1)c1ccccc1	CP260	11.22	inhibitor, partial curve
CCCOC(C(=O)OC1CCN(C)CC1)(c1ccccc1)c1ccccc1	TAB165	7.08	inhibitor, partial curve
CCCOC(C(=O)OC1CCN(C)CC1)(c1ccccc1)c1ccccc1	TAB109	8.912	inhibitor, single point
CCCOC(C(=O)OC1CCN(C)CC1)(c1ccccc1)c1ccccc1	AS120	11.22	inhibitor, single point
CCCOC(C(=O)OC1CCN(C)CC1)(c1ccccc1)c1ccccc1	CP256	10	inhibitor, partial curve, poor fit
CCCOC(C(=O)OC1CCN(C)CC1)(c1ccccc1)c1ccccc1	PC26	13.46	inhibitor, partial curve
CCCOC(C(=O)OC1CCN(C)CC1)(c1ccccc1)c1ccccc1	TAB113	11.22	inhibitor, single point
CCCOC(C(=O)OC1CCN(C)CC1)(c1ccccc1)c1ccccc1	SC27B	14.13	inhibitor, single point
CCCOC(C(=O)OC1CCN(C)CC1)(c1ccccc1)c1ccccc1	P94_40	5.012	inhibitor, partial curve
CCCOC(C(=O)OC1CCN(C)CC1)(c1ccccc1)c1ccccc1	PC15	8.912	inhibitor, partial curve
CCCOC(C(=O)OC1CCN(C)CC1)(c1ccccc1)c1ccccc1	CP185	11.22	inhibitor, single point
CCCOC(C(=O)OC1CCN(C)CC1)(c1ccccc1)c1ccccc1	CP238	10	inhibitor, single point
CCCOC(C(=O)OC1CCN(C)CC1)(c1ccccc1)c1ccccc1	CP191	14.13	inhibitor, single point
CCCOC(C(=O)OC1CCN(C)CC1)(c1ccccc1)c1ccccc1	P93_24	7.943	inhibitor, partial curve, poor fit
CCCOC(C(=O)OC1CCN(C)CC1)(c1ccccc1)c1ccccc1	N140	11.22	inhibitor, single point
CCCOC(C(=O)OC1CCN(C)CC1)(c1ccccc1)c1ccccc1	CP286	12.59	inhibitor, partial curve
CCCOC(C(=O)OC1CCN(C)CC1)(c1ccccc1)c1ccccc1	3D7	11.22	inhibitor, single point

The first 4 entries again:

For F/C(COc1ccc2c(c1)[nH]c1ccccc12)=C1/CN2CCC1CC2 [CP335] the result was potency 8.492 µM (inhibitor, partial curve).
For F/C(COc1ccc2c(c1)[nH]c1ccccc12)=C1/CN2CCC1CC2 [CP305] the result was potency 7.569 µM (inhibitor, partial curve, poor fit).
For F/C(COc1ccc2c(c1)[nH]c1ccccc12)=C1/CN2CCC1CC2 [CP291] the result was potency 10.69 µM (inhibitor, partial curve).
For F/C(COc1ccc2c(c1)[nH]c1ccccc12)=C1/CN2CCC1CC2 [3D7] the result was potency 11.22 µM (inhibitor, single point).

Data taken from PubChem BioAssay AID504749, deposited by NCATS (2011).